Earlier results on 1 compound are cited in patent publication US20050203105A1, “Composition and method for controlling alcohol-induced facial flushing in susceptible humans” (priority 2003, published 2005).

Entries after “also recorded” stand apart in the source; their conditions may differ.

With `CN/C(=N/CCSCc1nc[nH]c1C)NC#N` [Cimetidine], for the setting “alcohol and H2 blocker administered”, the “serum / blood alcohol levels” value was “small elevations of serum alcohol levels; also recorded: higher blood ethanol levels”. Moreover, the ethanol concentration-time curve entry (ethanol ingested on an empty stomach) was “does not influence the ethanol concentration-time curve”. Moreover, the ethanol elimination rate result (fasting men and women) is recorded as “unchanged”.
